From article PMC6447360
These are yes or no findings as the source states them, for the method shown. Some binding calls cover weakened binding; strength is not graded here.

The chains behind the UniProt entries cited, without tags or fusion partners.
UniProt P21728: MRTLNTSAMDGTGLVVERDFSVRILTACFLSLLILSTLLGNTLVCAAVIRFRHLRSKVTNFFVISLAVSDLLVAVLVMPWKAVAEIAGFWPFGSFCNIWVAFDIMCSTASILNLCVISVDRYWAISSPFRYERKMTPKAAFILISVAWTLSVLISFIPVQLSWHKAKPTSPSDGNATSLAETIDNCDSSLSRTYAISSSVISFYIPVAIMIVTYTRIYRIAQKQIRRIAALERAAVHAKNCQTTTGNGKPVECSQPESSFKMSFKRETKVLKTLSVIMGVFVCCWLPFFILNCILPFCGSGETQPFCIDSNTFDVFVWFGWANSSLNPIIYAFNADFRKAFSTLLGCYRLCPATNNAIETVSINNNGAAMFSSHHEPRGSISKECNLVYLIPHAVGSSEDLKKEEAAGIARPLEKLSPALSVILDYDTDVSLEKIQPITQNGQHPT
UniProt P32121: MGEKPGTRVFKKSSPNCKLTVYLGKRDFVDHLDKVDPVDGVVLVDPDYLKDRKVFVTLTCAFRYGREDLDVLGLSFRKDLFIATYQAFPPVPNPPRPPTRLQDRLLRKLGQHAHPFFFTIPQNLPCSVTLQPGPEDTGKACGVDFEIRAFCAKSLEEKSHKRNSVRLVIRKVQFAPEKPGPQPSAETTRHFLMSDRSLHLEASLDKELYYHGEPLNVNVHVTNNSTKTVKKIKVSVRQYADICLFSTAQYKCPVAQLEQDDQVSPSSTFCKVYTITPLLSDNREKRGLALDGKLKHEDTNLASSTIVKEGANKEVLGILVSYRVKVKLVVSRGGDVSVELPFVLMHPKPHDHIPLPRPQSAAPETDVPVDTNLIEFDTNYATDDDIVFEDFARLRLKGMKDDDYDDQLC

Experiments:
[1] = molecular target: DRD1-NNES-eLOV-TEVcs-Flag-Gal4-V5 (UniProt P21728); assay: SPARK transcriptional reporter (PPI-dependent TEVp cleavage of LOV-caged TEVcs releases Gal4; UAS-FLuc luminescence on a plate reader); HEK293T transiently transfected (Lipofectamine), re-plated in 96-well plates; 10 µM isoetharine with 10 µM furimazine or blue light for 5-20 min; in the drug screen 5 µM compound (isoetharine, dopamine spike-ins, 92 drugs) with 10 µM furimazine for 1 hr; FLuc read ~8-9 hr later
[2] = molecular target: DRD1-NNES-eLOV-TEVcs-Flag-Gal4-V5 (UniProt P21728); assay: SPARK transcriptional reporter (PPI-dependent TEVp cleavage of LOV-caged TEVcs releases Gal4; UAS-Citrine imaging); HEK293T transiently transfected; agonist added (isoetharine for β2AR, vasopressin for AVPR2, dopamine for DRD1) together with 10 µM furimazine or blue light (5-15 min; DRD1 …; continuous in Fig. 3F-G); Citrine imaged ~8 hr later, Citrine/HA intensity ratio of HA-positive cells

binding [1]: binds
binding [2]: binds
Substance: NanoLuc-15aa linker-βarrestin2-HA-GS linker-TEVp (from UniProt P32121 1-409)
